{
  "source": "patent US20240145031A1",
  "about": "“Methods and devices for drug repositioning and drug repurposing as nuclear receptor modulators” (Precision Medicine Lab, priority 2022, published 2024)",
  "molecular_target": "T1, glucocorticoid receptor recombinant human protein, ligand binding domain (LBD) (Homo sapiens, UniProt P04150)",
  "T1 construct": "purchased Thermo Fisher Scientific A15668",
  "T1 sequence (P04150 524-758 limits assumed)": "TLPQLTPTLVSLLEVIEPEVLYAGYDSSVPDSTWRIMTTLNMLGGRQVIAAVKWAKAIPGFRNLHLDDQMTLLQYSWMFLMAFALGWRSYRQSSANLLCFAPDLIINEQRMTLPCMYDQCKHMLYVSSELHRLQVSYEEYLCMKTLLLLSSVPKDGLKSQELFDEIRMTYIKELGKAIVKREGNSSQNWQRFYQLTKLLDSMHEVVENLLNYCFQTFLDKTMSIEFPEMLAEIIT",
  "assay": "nuclear receptor cofactor recruitment peptide array (70 coregulator peptides), ligand induced cofactor peptide interaction profiling",
  "type": "biochemical",
  "conditions": "for weighted log fold change: example 3, weight factors of table 7",
  "description": "Interactions between the glucocorticoid receptor ligand binding domain and the selected drugs for repurposing and coregulator peptides were determined using the method as described by Zalachoras et al 2013^xxvii Each peptide array consisting of 70 coregulator peptides as described in table 1 were incubated with a reaction mixture of 1 nM purified glucocorticoid receptor recombinant human protein, ligand binding domain (LBD), (Thermo Fisher Scientific, cat #A15668), ALEXA488-conjugated anti-GST antibody and buffer F (PV4689, A-11131, and PV4547; Invitrogen). […] For ligand induced cofactor peptide interaction profiling the set of repurposing drugs were tested at a concentration of 0.05 mM compared to solvent (2% DMSO in water). Incubation was performed at 20° C. on the cofactor peptide array. Glucocorticoid receptor binding to each peptide on the array, reflected by fluorescent signal, was quantified by image analysis using R-based software (Precision Medicine Lab). The 70 coregulator peptides used represent a range of coregulator nuclear receptor-boxes known to interact with the glucocorticoid receptor and other nuclear receptors. The binding profiles were generated for glucocorticoid receptor-LBD treated with the repurposing drugs vs cortisol.\nThe R2 is calculated using the data for each of the 70 cofactor peptides using the same weight.\nIn this example a weight factor was applied on the log fold change data of example 1 to determine the similarities between the tested repositioning drugs versus cortisol using the coefficient of determination, R2, between the weighted log fold change data of the tested repurposing drug to the positive control, cortisol. […] In this example 14 cofactor peptides were used (table 3).",
  "note": "At least one compound was matched to its structure with a doubt left.",
  "data": [
    {"smiles": "CCC(CC)COC(=O)[C@H](C)N[P@](=O)(OC[C@H]1O[C@@](C#N)(c2ccc3c(N)ncnn23)[C@H](O)[C@@H]1O)Oc1ccccc1", "note": "[Drug 4, Remdesivir]", "values": [
      {"measurement": "weighted log fold change", "setting": "peptide 24 NCOA1_738_759", "value": 0.034},
      {"measurement": "weighted log fold change", "setting": "peptide 27 NCOA2_734_755", "value": 0.044},
      {"measurement": "weighted log fold change", "setting": "peptide 31 NCOA3_726_747", "value": 0.194},
      {"measurement": "weighted log fold change", "setting": "peptide 42 NRIP1_369_390", "value": "−0.035"},
      {"measurement": "weighted log fold change", "setting": "peptide 45 NRIP1_810_831", "value": 0.017},
      {"measurement": "weighted log fold change", "setting": "peptide 52 PELP1_21_42", "value": 0.008},
      {"measurement": "weighted log fold change", "setting": "peptide 59 PRGC2_146_166", "value": 0.034},
      {"measurement": "weighted log fold change", "setting": "peptide 63 TIF1A_748_769", "value": 0.011},
      {"measurement": "weighted log fold change", "setting": "peptide 68 UBE3A_650_671", "value": 0.017},
      {"measurement": "weighted log fold change", "setting": "peptide 70 ZNHI3_90_111", "value": 0.006},
      {"measurement": "log fold change", "setting": "example 4, weight factor of 1, peptide 11 IKBB_278_299", "value": 0.150},
      {"measurement": "log fold change", "setting": "example 4, weight factor of 1, peptide 27 NCOA2_734_755", "value": 0.174},
      {"measurement": "log fold change", "setting": "example 4, weight factor of 1, peptide 59 PRGC2_146_166", "value": 0.272},
      {"measurement": "log fold change", "setting": "example 4, weight factor of 1, peptide 68 UBE3A_650_671", "value": 0.068},
      {"measurement": "log fold change", "setting": "peptide 1 ANDR_11_32, 0.05 mM vs solvent (2% DMSO)", "value": 0.380},
      {"measurement": "log fold change", "setting": "peptide 2 CBP_2056_2077, 0.05 mM vs solvent (2% DMSO)", "value": 0.200},
      {"measurement": "log fold change", "setting": "peptide 3 CENPR_159_177, 0.05 mM vs solvent (2% DMSO)", "value": 0.368},
      {"measurement": "log fold change", "setting": "peptide 4 CHD9_1024_1045, 0.05 mM vs solvent (2% DMSO)", "value": 0.377},
      {"measurement": "log fold change", "setting": "peptide 5 CNOT1_141_162, 0.05 mM vs solvent (2% DMSO)", "value": 0.123},
      {"measurement": "log fold change", "setting": "peptide 6 CNOT1_558_579, 0.05 mM vs solvent (2% DMSO)", "value": 0.251},
      {"measurement": "log fold change", "setting": "peptide 7 DHX30_49_70, 0.05 mM vs solvent (2% DMSO)", "value": 0.229},
      {"measurement": "log fold change", "setting": "peptide 8 EP300_2040_2061, 0.05 mM vs solvent (2% DMSO)", "value": 0.139},
      {"measurement": "log fold change", "setting": "peptide 10 GNAQ_22_43, 0.05 mM vs solvent (2% DMSO)", "value": 0.133},
      {"measurement": "log fold change", "setting": "peptide 11 IKBB_278_299, 0.05 mM vs solvent (2% DMSO)", "value": 0.150},
      {"measurement": "log fold change", "setting": "peptide 13 KMT2D_2674_2695, 0.05 mM vs solvent (2% DMSO)", "value": 0.206},
      {"measurement": "log fold change", "setting": "peptide 15 MAPE_250_271, 0.05 mM vs solvent (2% DMSO)", "value": 0.219},
      {"measurement": "log fold change", "setting": "peptide 16 MAPE_301_322, 0.05 mM vs solvent (2% DMSO)", "value": 0.117},
      {"measurement": "log fold change", "setting": "peptide 18 MEN1_256_277, 0.05 mM vs solvent (2% DMSO)", "value": 0.139},
      {"measurement": "log fold change", "setting": "peptide 19 MGMT_87_108, 0.05 mM vs solvent (2% DMSO)", "value": 0.148},
      {"measurement": "log fold change", "setting": "peptide 20 MLL2_4176_4197, 0.05 mM vs solvent (2% DMSO)", "value": 0.197},
      {"measurement": "log fold change", "setting": "peptide 21 MLL2_4703_4724, 0.05 mM vs solvent (2% DMSO)", "value": 0.174},
      {"measurement": "log fold change", "setting": "peptide 24 NCOA1_738_759, 0.05 mM vs solvent (2% DMSO)", "value": 0.275},
      {"measurement": "log fold change", "setting": "peptide 25 NCOA2_630_651, 0.05 mM vs solvent (2% DMSO)", "value": 0.239},
      {"measurement": "log fold change", "setting": "peptide 27 NCOA2_734_755, 0.05 mM vs solvent (2% DMSO)", "value": 0.174},
      {"measurement": "log fold change", "setting": "peptide 28 NCOA2_867_888, 0.05 mM vs solvent (2% DMSO)", "value": 0.314},
      {"measurement": "log fold change", "setting": "peptide 29 NCOA3_610_631, 0.05 mM vs solvent (2% DMSO)", "value": 0.422},
      {"measurement": "log fold change", "setting": "peptide 30 NCOA3_674_695, 0.05 mM vs solvent (2% DMSO)", "value": 0.240},
      {"measurement": "log fold change", "setting": "peptide 31 NCOA3_726_747, 0.05 mM vs solvent (2% DMSO)", "value": 0.389},
      {"measurement": "log fold change", "setting": "peptide 32 NCOA4_316_337, 0.05 mM vs solvent (2% DMSO)", "value": 0.566},
      {"measurement": "log fold change", "setting": "peptide 35 NCOR1_2040_2061, 0.05 mM vs solvent (2% DMSO)", "value": 0.184},
      {"measurement": "log fold change", "setting": "peptide 36 NELFB_329_350, 0.05 mM vs solvent (2% DMSO)", "value": 0.134},
      {"measurement": "log fold change", "setting": "peptide 37 NR0B1_138_159, 0.05 mM vs solvent (2% DMSO)", "value": 0.162},
      {"measurement": "log fold change", "setting": "peptide 40 NRIP1_1056_1077, 0.05 mM vs solvent (2% DMSO)", "value": 0.419},
      {"measurement": "log fold change", "setting": "peptide 41 NRIP1_174_195, 0.05 mM vs solvent (2% DMSO)", "value": "−0.784"},
      {"measurement": "log fold change", "setting": "peptide 42 NRIP1_369_390, 0.05 mM vs solvent (2% DMSO)", "value": "−0.283"},
      {"measurement": "log fold change", "setting": "peptide 43 NRIP1_489_510, 0.05 mM vs solvent (2% DMSO)", "value": 0.298},
      {"measurement": "log fold change", "setting": "peptide 44 NRIP1_701_722, 0.05 mM vs solvent (2% DMSO)", "value": 0.539},
      {"measurement": "log fold change", "setting": "peptide 45 NRIP1_810_831, 0.05 mM vs solvent (2% DMSO)", "value": 0.269},
      {"measurement": "log fold change", "setting": "peptide 46 NRIP1_925_946, 0.05 mM vs solvent (2% DMSO)", "value": "−0.020"},
      {"measurement": "log fold change", "setting": "peptide 49 PAK6_249_270, 0.05 mM vs solvent (2% DMSO)", "value": 0.271},
      {"measurement": "log fold change", "setting": "peptide 50 PCAF_179_200, 0.05 mM vs solvent (2% DMSO)", "value": 0.147},
      {"measurement": "log fold change", "setting": "peptide 51 PELP1_169_190, 0.05 mM vs solvent (2% DMSO)", "value": 0.232},
      {"measurement": "log fold change", "setting": "peptide 52 PELP1_21_42, 0.05 mM vs solvent (2% DMSO)", "value": 0.242},
      {"measurement": "log fold change", "setting": "peptide 54 PIAS2_7_28, 0.05 mM vs solvent (2% DMSO)", "value": 0.064},
      {"measurement": "log fold change", "setting": "peptide 55 PNRC1_306_327, 0.05 mM vs solvent (2% DMSO)", "value": 0.114},
      {"measurement": "log fold change", "setting": "peptide 56 PPRC1_152_173, 0.05 mM vs solvent (2% DMSO)", "value": 0.085},
      {"measurement": "log fold change", "setting": "peptide 57 PR285_1106_1127, 0.05 mM vs solvent (2% DMSO)", "value": 0.579},
      {"measurement": "log fold change", "setting": "peptide 59 PRGC2_146_166, 0.05 mM vs solvent (2% DMSO)", "value": 0.272},
      {"measurement": "log fold change", "setting": "peptide 60 PRGC2_338_358, 0.05 mM vs solvent (2% DMSO)", "value": "−0.540"},
      {"measurement": "log fold change", "setting": "peptide 61 PROX1_58_79, 0.05 mM vs solvent (2% DMSO)", "value": 0.296},
      {"measurement": "log fold change", "setting": "peptide 62 RAD9A_349_370, 0.05 mM vs solvent (2% DMSO)", "value": 0.146},
      {"measurement": "log fold change", "setting": "peptide 63 TIF1A_748_769, 0.05 mM vs solvent (2% DMSO)", "value": 0.184},
      {"measurement": "log fold change", "setting": "peptide 64 TIP60_477_498, 0.05 mM vs solvent (2% DMSO)", "value": 0.179},
      {"measurement": "log fold change", "setting": "peptide 67 TRXR1_133_154, 0.05 mM vs solvent (2% DMSO)", "value": 0.097},
      {"measurement": "log fold change", "setting": "peptide 68 UBE3A_650_671, 0.05 mM vs solvent (2% DMSO)", "value": 0.068},
      {"measurement": "log fold change", "setting": "peptide 69 WIPI1_120_141, 0.05 mM vs solvent (2% DMSO)", "value": 0.498},
      {"measurement": "log fold change", "setting": "peptide 70 ZNHI3_90_111, 0.05 mM vs solvent (2% DMSO)", "value": 0.197}
    ]}
  ]
}
